Laboratory results taken from article PMC10910794, “Toxoplasma sortilin interacts with secretory proteins and it is critical for parasite proliferation” (Parasites & Vectors, 2024).
Results are given in words; binding and its absence hold for the method and conditions named. Binding calls can cover weak binding; strength is not graded here. For some assays here: Tags and fused reporters may be left off the sequences shown. For some assays here: Binding seen in cells or lysates may run through a third protein.

B1: TgROP9 (protein, UniProt S8F3X8 1-353)
chain: MTHPNPLQTRFSRSASLVSRMPLVRLFFTIAAPLLFSPSPCPFLPLKTHCLAIQLGKPQGSPPASQKEAIRDTGVSHQKGEPSDSSSEPKPQGTVAETPGAASAAAAEVGRPSRSSAGPGKKKRGPSLFTEETMGPSKRHPCLKTLAAAVERFQAQHLTGRDAAKAFVDAIQECGIQVVASDYDRTAISVHSGGSARRDDLSVLGALTPDFKLLGEELTRRNIPIYFVTFSDKGENRGDRIAAGPLVEATLKASNANFEAQGVFGYYPPFYSEPEDYAPLGLSAPMPTDKSFHIQQVSKASGVPEDKILLLDDDRANCVNFCRSGGAAIHVSGHEGFDFGAVRVVVKPSLIMQ

Key:
[1] = biological target: T1, His-TgROP9 (Toxoplasma gondii) (UniProt S8F3X8); experiment: BLI; His-tagged proteins (1 μM) loaded on Ni-NTA sensors; GST-tagged sortilin at 100, 150, 200, 250 and 300 nM in PBS, 180 s association, 180 s dissociation; GST (1 μM) as negative control; both purified
T1 sequence: B1 chain

[2] = biological target: Native T. gondii sortilin (TGGT1_290160) (Toxoplasma gondii (endogenous in RH tachyzoites)); experiment: co-IP; rat anti-sortilin IgG immunoprecipitate of T. gondii RH tachyzoite lysate, Western blot with TgROP9-, TgMIC3- and TgSAG2-specific mouse IgG; Vero cell total proteins as negative control

Molecule	binding [1]	binding [2]
GST-tagged recombinant sortilin protein (Toxoplasma gondii (RH strain))	binds	
B1		binds
